The text below walks through data of article PMC11078746 (Nature, 2024).

Several values for one entry are separate records, joined by “and”; a condition that tells them apart may be missing. Identical values can stand only once. The source gives many values for each of these; only a part stands here.

The test system of the assay is SW48 xenografts. The experiment in a line: SW48 xenograft efficacy, compound 3 p.o. twice daily. In kind it is in vivo. To be noted: single mouse, listed as WRNi #4. How it is done: All animal studies were conducted in accordance with ethics and procedures covered by permit BS-2275 and BS-1975 issued by the Kantonales Veterinäramt Basel-Stadt and in strict adherence to guidelines of the Eidgenössisches Tierschutzgesetz and the Eidgenössische Tierschutzverordnung, Switzerland. All animal studies were approved by the internal ethics committee. All animals had access to food and water ad libitum and were identified with transponders. They were housed in a specific-pathogen-free facility in IVC racks under a 12 h–12 h light–dark cycle. To establish cell-line-derived xenograft models, 6–7-week-old female athymic nude (Crl:NU(NCr)-Foxn1^nu) or SCID-BEIGE (CB17.Cg-PrkdcscidLystbg-J/Crl) mice from Charles River were engrafted subcutaneously with 5 million tumour cells in HBSS (H6648, Sigma-Aldrich). For SNU-407, Lovo, IM95, RL95.2, Ishikawa and IGROV-1, the cells were concentrated in 50% Matrigel (354234, Corning). Patient-derived xenografts were induced and expanded by transplantation as previously described. […] For the efficacy experiment, mice were randomized into groups (n = 5–6) for a mean tumour size of 100–150 mm^3. […] Blood samples were collected on day 7 and 91. […] Tumour responses are reported with the measures of tumour volumes from the treatment start. […] Animals were randomized (n = 3) and tumour samples were collected at 0, 1, 4, 8 and 24 h on the first day and then collected 4 h after the last treatment on day 3, 8, 10, 14 (including a 24 h timepoint), 17 and 21. Tumours were excised, weighed, either frozen in liquid nitrogen and cryogenic dry pulverized with the CryoPrep system (model CP-02, Covaris) or processed to FFPE after fixation. […] On day 12, blood samples were collected for PK analysis. On the last day (3 h after the last treatment), tumours were excised, weighed, frozen in liquid nitrogen and cryogenic dry pulverized for PD analysis.

`CCc1c(N2CCN(C(=O)c3ncccc3O)CC2)c(=O)n2nc(C3=CCOCC3)nc2n1CC(=O)Nc1ccc(C(F)(F)F)cc1C` [compound 3]: the “Tumour volume (TVol)” value was 222.23 mm3 and 432.34 mm3 and 293.76 mm3 and 546.60 mm3 and 369.99 mm3 (15mg/kg BID, day 6); 464.47 mm3 and 551.93 mm3 and 284.89 mm3 and 687.99 mm3 and 362.62 mm3 and 641.62 mm3 and 391.47 mm3 (15mg/kg BID, day 8); 234.24 mm3 and 504.11 mm3 and 198.44 mm3 and 326.79 mm3 and 274.60 mm3 and 319.42 mm3 and 471.32 mm3 (50mg/kg BID, day 8); 189.74 mm3 and 270.64 mm3 and 96.82 mm3 and 179.84 mm3 and 204.54 mm3 and 165.00 mm3 and 270.63 mm3 (150mg/kg BID, day 8).
